Experimental data: PubChem BioAssay AID504791 (Drosophila RNAi Screening Center, 2011)
Purpose: 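Factors in Argonaute-based small RNA production and activity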 (primary screen). Cell system: Drosophila S2-derived reporter cells. Reagents: long dsRNA against Drosophila genes, about 150-250 ng dsRNA per well (siRNA assay); about 80-120 ng (miRNA assay). Duration: about 5 days (siRNA assay); about 4 days (miRNA assay). Challenge: copper sulfate induction of reporters: 25 µM (siRNA assay); 200 mM stated (miRNA assay), 1-2 days before reading. Measurement: 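Dual luciferase assay: Renilla to firefly signal ratio in each well, scaled to the mean ratio of its plate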. Scale: siRNA reporter hit score: higher = 3 marks a strong hit with raised ratio; -3 a strong hit with lowered ratio. Rule for the call: 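a well was a first-pass pick when its plate-scaled ratio rose above 1.5 (siRNA assay) or 1.6 (miRNA assay), or dropped below 0.6; a gene counted only if two separate dsRNAs agreed on retest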.
In all, the deposit lists about 23,000 reagents; this is an unselected part of those with a known target gene and a result. Over the whole deposit, 199 (0.86%) got an active call. 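Plate-scaled ratios behind the calls are not deposited; printed light signals are raw; many rows marked increased or decreased are still called inactive.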 The numbers tell different reagents against one gene apart. Names joined by + are all predicted targets of the reagent. No sequences are given here.

gene,reagent no.,siRNA reporter hit score,stable siRNA reporter change,miRNA reporter change,"stable assay Renilla, run 1 (luminescence)","stable assay firefly, run 1 (luminescence)",call
Cul6 (Cullin 6),1,,,,8553,4.29e5,inactive
CG14915,1,,,,5139,2.83e5,inactive
Mtl (Mig-2-like),1,,,,4447,4.17e5,inactive
ND-20L (NADH dehydrogenase (ubiquinone) 20 kDa subunit-like),1,,,,5307,4.12e5,inactive
RpL3 (Ribosomal protein L3),1,,,,6907,3.29e5,inactive
CG6696,1,,,,6404,5.40e5,inactive
"Ing3 (Inhibitor of growth family, member 3)",1,,,,5119,3.87e5,inactive
CG13501,1,,,,6792,3.35e5,inactive
upd2 (unpaired 2),1,,,,3168,3.28e5,inactive
Asx (Additional sex combs),1,,reporter ratio raised past the hit cutoff,,6071,1.95e5,inactive
Gfat1 (Glutamine:fructose-6-phosphate aminotransferase 1),1,,,,8077,5.65e5,inactive
cort (cortex),1,,,,4827,5.59e5,inactive
smash (smallish),1,,,reporter ratio lowered past the hit cutoff,7567,4.28e5,inactive
smash (smallish),2,,,,5819,3.97e5,inactive
en (engrailed),1,,,,5947,3.19e5,inactive
CG15546,1,,,,5326,3.90e5,inactive
CG15546,2,,,,2660,3.44e5,inactive
CG7631,1,,,,6691,3.56e5,inactive
CG14455,1,,,,6146,4.33e5,inactive
TpnC47D (Troponin C at 47D),1,,,,5947,3.72e5,inactive
rdhB (retinol dehydrogenase B),1,,,,10475,3.90e5,inactive
Ctu1 (Cytosolic thiouridylase subunit 1),1,,,,7232,3.19e5,inactive
AOX4 (Aldehyde oxidase 4),1,,,,7988,4.36e5,inactive
casp (caspar),1,,,,9051,2.91e5,inactive
CG14017,1,,,,7507,5.42e5,inactive
Sld5,1,,,,7699,3.70e5,inactive
lok (loki),1,,,,10438,1.95e6,inactive
CG2247,1,,,,8130,3.82e5,inactive
Fam92,1,,,,30237,5.24e5,inactive
SmE (Small ribonucleoprotein particle protein SmE),1,,reporter ratio raised past the hit cutoff,,11323,3.72e5,active
PGRP-SC1b (Peptidoglycan recognition protein SC1b),1,,,,8275,3.70e5,inactive
MTF-1 (Metal response element-binding Transcription Factor-1),1,,,,3611,3.12e5,inactive
MTF-1 (Metal response element-binding Transcription Factor-1),2,,,reporter ratio raised past the hit cutoff,3039,2.30e5,active
MTF-1 (Metal response element-binding Transcription Factor-1),3,,,reporter ratio raised past the hit cutoff,4712,2.18e5,active
CG11674,1,,,,7894,5.68e5,inactive
CG8837,1,,,,7824,3.81e5,inactive
CG9890,1,,,,5596,3.23e5,inactive
"Edem2 (ER degradation enhancer, mannosidase alpha-like 2)",1,,,,7126,3.79e5,inactive
CG43999,1,,,,7262,3.67e5,inactive
CG6414,1,,,,5868,3.98e5,inactive
a (arc),1,,,,4760,2.00e5,inactive
a (arc),2,,,,7356,4.01e5,inactive
PpN58A (Protein phosphatase N at 58A),1,,,,15899,3.14e5,inactive
Nek2,1,,,,3656,4.03e5,inactive
CG15239,1,,,,5694,4.37e5,inactive
kel (kelch),1,,,,7846,4.17e5,inactive
AANATL5 (Arylalkylamine N-acetyltransferase-like 5),1,,,,6591,3.84e5,inactive
pnt (pointed),1,,,,4304,1.67e5,inactive
pnt (pointed),2,,,,1760,1.90e5,inactive
Clp (Clipper),1,,reporter ratio raised past the hit cutoff,,13057,4.07e5,inactive
CG13924,1,,,,4468,2.99e5,inactive
CG13050,1,,,,6799,3.82e5,inactive
brv3 (brivido-3),1,,,,6196,3.08e5,inactive
CG30050,1,,,,5427,3.54e5,inactive
Hydr2 (alpha/beta hydrolase2),1,,,,29779,2.61e5,inactive

Entries listed above called active:
gene,reagent no.,siRNA reporter hit score,stable siRNA reporter change,miRNA reporter change,"stable assay Renilla, run 1 (luminescence)","stable assay firefly, run 1 (luminescence)",call
SmE (Small ribonucleoprotein particle protein SmE),1,,reporter ratio raised past the hit cutoff,,11323,3.72e5,active
MTF-1 (Metal response element-binding Transcription Factor-1),2,,,reporter ratio raised past the hit cutoff,3039,2.30e5,active
MTF-1 (Metal response element-binding Transcription Factor-1),3,,,reporter ratio raised past the hit cutoff,4712,2.18e5,active

The listing continues.
gene,reagent no.,siRNA reporter hit score,stable siRNA reporter change,miRNA reporter change,"stable assay Renilla, run 1 (luminescence)","stable assay firefly, run 1 (luminescence)",call
CG13614,1,,,,6963,2.92e5,inactive
abs (abstrakt),1,,,,8475,4.33e5,inactive
CSN3 (COP9 signalosome subunit 3),1,,,reporter ratio lowered past the hit cutoff,4356,2.63e5,active
CG6867,1,,,,3508,3.44e5,inactive
CG13306,1,,,,5978,3.81e5,inactive
CG1698,1,,,,8206,3.41e5,inactive
CG33229,1,,,,8251,5.54e5,inactive
CG6870,1,,,,7006,3.55e5,inactive
CG10073,1,,,,5327,3.06e5,inactive
Trxr1 (Thioredoxin reductase 1),1,,,,7092,5.15e5,inactive
Trxr1 (Thioredoxin reductase 1),2,,,,8807,5.17e5,inactive
CG16719,1,,,,7794,4.12e5,inactive
CG31861,1,,,,10215,6.24e5,inactive
CG34193,1,,,,6239,3.82e5,inactive
CG8043,1,,,,7270,4.98e5,inactive
Tmtc1 (Transmembrane O-mannosyltransferase targeting cadherins 1),1,,,,4684,3.03e5,inactive
Tmtc1 (Transmembrane O-mannosyltransferase targeting cadherins 1),2,,,,5671,4.33e5,inactive
Tmtc1 (Transmembrane O-mannosyltransferase targeting cadherins 1),3,,,,6763,3.87e5,inactive
Tmtc1 (Transmembrane O-mannosyltransferase targeting cadherins 1),4,,,,7048,4.73e5,inactive
Sfxn2 (Sideroflexin 2),1,,,,6883,4.26e5,inactive
CG11257,1,,,,6639,3.49e5,inactive
DIP-theta (Dpr-interacting protein theta),1,,,,2719,3.57e5,inactive
DIP-theta (Dpr-interacting protein theta),2,,,,7771,4.94e5,inactive
DIP-theta (Dpr-interacting protein theta),3,,,,8879,4.36e5,inactive
org-1 (optomotor-blind-related-gene-1),1,,,,4815,2.14e5,inactive
org-1 (optomotor-blind-related-gene-1),2,,,,3936,4.57e5,inactive
ndl (nudel),1,,,,6012,3.11e5,inactive
CG10513,1,,,,7584,5.15e5,inactive
CG31446,1,,,,4216,3.92e5,inactive
Irk2 (Inwardly rectifying potassium channel 2),1,,,,9578,3.36e5,inactive
CG8519,1,,,,6491,4.16e5,inactive
RnrS (Ribonucleoside diphosphate reductase small subunit),1,,,,7139,4.15e5,inactive
CG15393 (retired record),1,,,,8437,4.58e5,inactive
SkpA (SKP1-related A),1,,,,6059,4.70e5,inactive
HGTX,1,,,,5699,4.00e5,inactive
HGTX,2,,,,7364,3.10e5,inactive
CG34243 (retired record),1,,,,5747,5.75e5,inactive
CG34243 (retired record),2,,,,6404,6.28e5,inactive
Hsc70-4 (Heat shock protein 70 cognate 4),1,3,reporter ratio lowered past the hit cutoff,,7641,7.35e5,active
Hsc70-4 (Heat shock protein 70 cognate 4),2,,,reporter ratio raised past the hit cutoff,,,active
Lamtor2 + CG30120,1,,,,6327,4.00e5,inactive
Lamtor2 + CG30120,2,,,,5496,3.34e5,inactive
CG34049,1,,,,4027,4.20e5,inactive
b (black),1,,,,8543,5.44e5,inactive
Ostgamma (Oligosaccharide transferase gamma subunit),1,,,,1.13e5,4.23e5,inactive
Gr59b (Gustatory receptor 59b),1,,,,6183,3.54e5,inactive
CG13531,1,,,,6931,3.96e5,inactive
AANATL7 (Arylalkylamine N-acetyltransferase-like 7),1,,,,5795,3.56e5,inactive
CG16894,1,,,,4796,3.82e5,inactive
CG16894,2,,,,9682,6.58e5,inactive
CG3108,1,,,,7898,4.15e5,inactive
